This passage reports binding results from PMC6211773.

The chains behind the UniProt entries cited, without tags or fusion partners. Where a name states a change or a piece, a line headed by the entry shows the natural chain unless it says otherwise.
UniProt Q57YF8: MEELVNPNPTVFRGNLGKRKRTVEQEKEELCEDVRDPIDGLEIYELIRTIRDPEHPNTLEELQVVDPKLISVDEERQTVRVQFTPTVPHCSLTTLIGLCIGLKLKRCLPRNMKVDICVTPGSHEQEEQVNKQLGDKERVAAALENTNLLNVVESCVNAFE
UniProt Q388J9: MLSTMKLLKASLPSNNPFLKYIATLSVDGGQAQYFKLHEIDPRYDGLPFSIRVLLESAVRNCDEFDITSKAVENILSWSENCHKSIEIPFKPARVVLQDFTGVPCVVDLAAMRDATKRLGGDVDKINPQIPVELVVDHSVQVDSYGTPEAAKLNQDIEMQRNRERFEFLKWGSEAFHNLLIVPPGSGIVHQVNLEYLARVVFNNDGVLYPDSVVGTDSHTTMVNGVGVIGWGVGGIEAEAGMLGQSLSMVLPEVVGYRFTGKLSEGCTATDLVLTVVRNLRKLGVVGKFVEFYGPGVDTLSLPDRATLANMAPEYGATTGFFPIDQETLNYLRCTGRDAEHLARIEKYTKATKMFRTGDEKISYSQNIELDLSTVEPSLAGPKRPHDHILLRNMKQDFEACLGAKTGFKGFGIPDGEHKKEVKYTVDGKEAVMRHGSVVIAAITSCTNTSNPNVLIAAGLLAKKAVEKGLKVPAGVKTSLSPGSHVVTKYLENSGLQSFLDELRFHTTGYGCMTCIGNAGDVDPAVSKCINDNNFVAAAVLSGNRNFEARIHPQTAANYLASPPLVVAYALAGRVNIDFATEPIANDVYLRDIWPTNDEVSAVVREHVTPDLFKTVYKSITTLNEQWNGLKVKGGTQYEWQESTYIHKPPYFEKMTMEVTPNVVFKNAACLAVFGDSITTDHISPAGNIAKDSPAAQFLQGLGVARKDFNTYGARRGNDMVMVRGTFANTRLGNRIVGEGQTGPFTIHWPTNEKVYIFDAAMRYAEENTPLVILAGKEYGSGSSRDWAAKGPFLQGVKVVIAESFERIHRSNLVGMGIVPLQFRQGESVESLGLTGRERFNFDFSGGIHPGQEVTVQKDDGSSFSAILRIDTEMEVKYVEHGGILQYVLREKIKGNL
UniProt Q57YJ9: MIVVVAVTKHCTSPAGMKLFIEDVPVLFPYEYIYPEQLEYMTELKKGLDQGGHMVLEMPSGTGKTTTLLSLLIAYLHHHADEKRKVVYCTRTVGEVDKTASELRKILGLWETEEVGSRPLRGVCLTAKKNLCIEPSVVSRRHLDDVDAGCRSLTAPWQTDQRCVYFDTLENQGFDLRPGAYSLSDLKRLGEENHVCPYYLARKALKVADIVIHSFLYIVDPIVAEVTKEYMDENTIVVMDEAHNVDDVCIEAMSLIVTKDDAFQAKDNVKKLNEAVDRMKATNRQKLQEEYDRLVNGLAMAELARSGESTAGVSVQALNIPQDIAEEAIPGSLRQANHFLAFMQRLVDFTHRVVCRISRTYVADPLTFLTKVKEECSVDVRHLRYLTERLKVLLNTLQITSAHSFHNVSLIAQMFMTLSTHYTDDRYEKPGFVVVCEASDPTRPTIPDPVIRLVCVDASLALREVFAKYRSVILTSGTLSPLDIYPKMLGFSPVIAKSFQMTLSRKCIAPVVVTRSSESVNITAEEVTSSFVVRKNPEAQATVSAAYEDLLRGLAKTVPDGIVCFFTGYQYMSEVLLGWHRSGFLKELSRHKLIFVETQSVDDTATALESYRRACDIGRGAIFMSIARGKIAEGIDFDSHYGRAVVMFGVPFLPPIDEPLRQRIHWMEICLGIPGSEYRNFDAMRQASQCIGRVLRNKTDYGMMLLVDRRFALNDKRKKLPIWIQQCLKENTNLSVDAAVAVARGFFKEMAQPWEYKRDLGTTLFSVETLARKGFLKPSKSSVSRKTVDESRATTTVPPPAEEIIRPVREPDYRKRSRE

No constants are given. Whether binding was seen depends on the method and setting. Binding seen in cells or lysates may run through a third protein. A result given as binding can be weak or reduced; the word gives no strength.

The experiment deals with rTbCIA2B (Trypanosoma brucei) (UniProt Q57YF8). Description: pull-down; 400 pmoles of rTbCIA2B immobilised on Strep-Tactin resin, incubated with PCF extracts; anti-HA Western blot; only the target purified. In general terms: In western blotting, separated proteins are transferred to a membrane and probed.

Regarding TbACO-HA (from UniProt Q388J9), the binding result was “binds”.

As to TbXPD-HA (from UniProt Q57YJ9), the binding entry is given as “binds”.
